Measured values published in the supplement of paper PMC12889115.
This is one part of the list. Values are raw readings; no control value is given beside them.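 In the initial screen, polymyxin B was used at a concentration that permeabilizes Salmonella's outer membrane but not its inner membrane. Maximum growth was set by DMSO wells with or without polymyxin B. Since plates varied, data were ranked per plate, and compounds giving the lowest OD600 advanced as hits.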

System: Salmonella enterica serovar Typhimurium SL1344
Experiment: bacterial growth OD600 after 18 h with compound and polymyxin B; higher = more bacterial growth (less inhibition)
Settings: 50 µM, Mueller-Hinton broth

Structure (SMILES) | bacterial growth OD600 (polymyxin B 1 µg/mL) | bacterial growth OD600 (polymyxin B 0.75 µg/mL)
CCOC(=O)C1(Cc2cccc(F)c2)CCN(CCCn2cccn2)CC1 | 0.78 | 
COc1ccc(CN2C[C@@H]3C[C@@H](c4ccc(OC)cc4)N4CCC[C@@]34C2=O)cc1 |  | 0.819
COc1ccc(CC2=NOC(CNC(=O)COc3ccc(C)cc3)C2)cc1 (stereo unspecified) |  | 0.81
COCc1ccc(C(=O)NCc2c(C)ncc3c2CCN(C(=O)/C=C/c2ccc(Cl)cc2)C3)o1 |  | 0.752
COCCN1C(=O)CC(CC(=O)N2CCN(c3cccc(C)n3)CC2)(c2ccccc2Cl)C1=O (stereo unspecified) |  | 0.855
Cc1ccc(OCC(=O)N2CCC(C(Cc3ccccc3)N(C)C(=O)c3ccoc3C)CC2)cc1 (stereo unspecified) |  | 0.002
Cc1oc(-c2ccccc2NS(C)(=O)=O)nc1CN(C)Cc1cc(CN2CCCCC2)cs1 |  | 0.734
O=C1O[C@@H]2CN(C3CCCC3)C[C@@H]2N1CCc1cccc(Cl)c1 | 0.821 | 
COCC(=O)N(C)C(Cc1ccc(F)cc1)C1CCN(C(=O)c2ccc(-c3ccccc3)cc2)CC1 (stereo unspecified) |  | 0.71
COCCN1C(=O)CC(CC(=O)N2CCCC(C(=O)Cc3ccccc3)C2)(c2ccccc2C)C1=O (stereo unspecified) |  | 0.45
O=C(Nc1ccccc1)NC1CC(=O)N(Cc2cccc(F)c2)C1 (stereo unspecified) | 0.883 | 
C/C=C(\C)C(=O)NCC1Cc2cc(C)cc(-c3cc(C(C)=O)ccc3F)c2O1 (stereo unspecified) |  | 0.529
CC(C)(C)C(=O)N1CCC(C2CCN(Cc3cccc(F)c3F)CC2)C1 (stereo unspecified) |  | 0.821
CCN1CCN(c2ccc(-c3nc(Cc4ccc(OC)cc4)no3)cn2)CC1 | 0.788 | 
COc1ccc(C(=O)Nc2ccnn2C2CCN(Cc3ccc(C)s3)CC2)cc1 |  | 0.761
Fc1cccc(CN2CCC(C3CCN(Cc4ccncc4)C3)CC2)c1F (stereo unspecified) |  | 0.765

Structure (SMILES) | bacterial growth OD600 (polymyxin B 1 µg/mL) | bacterial growth OD600 (polymyxin B 0.75 µg/mL)
CN(Cc1ccon1)CC1(O)CCCN(Cc2ccc(F)c(F)c2)C1=O (stereo unspecified) | 0.885 | 
COc1ccc(CN2C[C@H]3OC(=O)N(Cc4ccc(OC)c(OC)c4)[C@H]3C2)cc1 |  | 0.744
Cc1c(C(C)NCc2cccn2-c2nccs2)cnn1-c1cccc(F)c1 (stereo unspecified) |  | 0.752
Cc1ccccc1N1C(=O)CN(C(=O)c2cc3ncccn3n2)CC1C (stereo unspecified) |  | 0.689
CC(C)n1cc(C(=O)NCc2cccnc2N(C)C)cn1 | 0.795 | 
CC(C)N(CCO)Cc1cn(-c2ccc(F)cc2)nc1-c1ccccc1Cl | 0.819 | 
COCCOC1CCN(C(=O)c2cn(CCC3CCCCC3)nn2)CC1 | 0.926 | 
Cc1ccc2c(c1)CN(CC(=O)NC(C)c1c(C)nn(C)c1C)CC(c1ccsc1)O2 (stereo unspecified) |  | 0.656
CCn1ccnc1CNC(=O)c1cc(Cn2ccc3ccccc32)[nH]n1 | 0.892 | 
CN1CCN(c2ncccc2CNC(=O)C(c2ccccc2)C2CCCC2)CC1 (stereo unspecified) |  | 0.916
COC(=O)CCC(=O)N1CCC2(CCCN(Cc3ccc(F)c(F)c3)C2=O)C1 (stereo unspecified) | 0.99 | 
COCCN(Cc1cnc(SC)nc1)CC1CCCN(C2Cc3ccccc3C2)C1 (stereo unspecified) |  | 0.805
COc1cc2nc(-c3cc4c(c(OC)c3)OCCN(C(=O)Cc3ccccc3)C4)cc(C)c2cc1OC |  | 0.808
CCN1CCN(C2(C(=O)N[C@@H]3C[C@H]3c3ccccc3)Cc3ccccc3C2)CC1 |  | 0.702
COc1ccc(F)c(CN2CCCC(O)(CNC3CCC3)C2=O)c1 (stereo unspecified) |  | 0.9

Fetched by structure from the list above (two):
Structure (SMILES) | bacterial growth OD600 (polymyxin B 1 µg/mL) | bacterial growth OD600 (polymyxin B 0.75 µg/mL)
CC(C)n1cc(C(=O)NCc2cccnc2N(C)C)cn1 | 0.795 | 
CCn1ccnc1CNC(=O)c1cc(Cn2ccc3ccccc32)[nH]n1 | 0.892 | 
